Article PMC9411159
These are yes or no findings as the source states them, for the method shown. In cells and extracts the contact can be indirect. Some entries that bind do so weakly or less than the wild type. For part of these data: Sequences can lack the tags named with a protein. Values belong to the binder of their own block, whether it stands above or below them.

What was measured:
[1] = molecular target: T1, centrosomal protein 131 kDa (CEP131) (human (endogenous in Huh7)) (UniProt Q9UPN4); assay: co-IP; endogenous proteins in Huh7 cells; capture with anti-ARID3A antibody and, in reverse, with anti-CEP131 antibody
T1 sequence: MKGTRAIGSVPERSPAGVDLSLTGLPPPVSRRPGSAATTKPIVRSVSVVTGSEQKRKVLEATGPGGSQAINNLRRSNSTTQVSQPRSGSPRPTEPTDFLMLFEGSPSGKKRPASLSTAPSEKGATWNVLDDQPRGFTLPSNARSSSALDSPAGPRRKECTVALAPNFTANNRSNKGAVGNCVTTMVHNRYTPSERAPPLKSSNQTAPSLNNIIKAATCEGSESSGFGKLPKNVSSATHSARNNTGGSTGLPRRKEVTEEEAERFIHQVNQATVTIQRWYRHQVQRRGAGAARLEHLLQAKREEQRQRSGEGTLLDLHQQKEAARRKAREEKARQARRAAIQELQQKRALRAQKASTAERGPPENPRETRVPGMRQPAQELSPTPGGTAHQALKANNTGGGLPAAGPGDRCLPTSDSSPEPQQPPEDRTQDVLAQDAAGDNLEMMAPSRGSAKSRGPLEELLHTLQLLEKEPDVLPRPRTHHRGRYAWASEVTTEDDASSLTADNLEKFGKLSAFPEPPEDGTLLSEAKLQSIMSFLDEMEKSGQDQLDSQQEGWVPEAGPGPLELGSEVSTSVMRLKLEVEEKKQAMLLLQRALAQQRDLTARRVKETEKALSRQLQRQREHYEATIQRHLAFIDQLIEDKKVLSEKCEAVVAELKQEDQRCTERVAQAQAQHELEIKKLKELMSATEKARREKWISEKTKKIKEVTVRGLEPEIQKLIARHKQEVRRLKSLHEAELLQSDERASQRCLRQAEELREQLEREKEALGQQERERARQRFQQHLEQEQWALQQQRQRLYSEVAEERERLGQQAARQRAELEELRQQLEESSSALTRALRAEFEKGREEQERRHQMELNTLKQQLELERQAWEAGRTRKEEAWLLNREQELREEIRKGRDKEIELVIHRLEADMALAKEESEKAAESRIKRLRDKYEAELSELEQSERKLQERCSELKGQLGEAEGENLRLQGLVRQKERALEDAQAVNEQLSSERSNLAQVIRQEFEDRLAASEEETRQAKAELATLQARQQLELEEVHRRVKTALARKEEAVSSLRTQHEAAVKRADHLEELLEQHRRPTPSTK

Flag-tagged ARID3A = molecular target: T2, Flag-tagged ARID3A (UniProt Q99856); assay: co-IP; Huh7 and HEK-293T cells transfected with Flag-tagged ARID3A and HA-tagged CEP131; capture with anti-Flag antibody
T2 sequence: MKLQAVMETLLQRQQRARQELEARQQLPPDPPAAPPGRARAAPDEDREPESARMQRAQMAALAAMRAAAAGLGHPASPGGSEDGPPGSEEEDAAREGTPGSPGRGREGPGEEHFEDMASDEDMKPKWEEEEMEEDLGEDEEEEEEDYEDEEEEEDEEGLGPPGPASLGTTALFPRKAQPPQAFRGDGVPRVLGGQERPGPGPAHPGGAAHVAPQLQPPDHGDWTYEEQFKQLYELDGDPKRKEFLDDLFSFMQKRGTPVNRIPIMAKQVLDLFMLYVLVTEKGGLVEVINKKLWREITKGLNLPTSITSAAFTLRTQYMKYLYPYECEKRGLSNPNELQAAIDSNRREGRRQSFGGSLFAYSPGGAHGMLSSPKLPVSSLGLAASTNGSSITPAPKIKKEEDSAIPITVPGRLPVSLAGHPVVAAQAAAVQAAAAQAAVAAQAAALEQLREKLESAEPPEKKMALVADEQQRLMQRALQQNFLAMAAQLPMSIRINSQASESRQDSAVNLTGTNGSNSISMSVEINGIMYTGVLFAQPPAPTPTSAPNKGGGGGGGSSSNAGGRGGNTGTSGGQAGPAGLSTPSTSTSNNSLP

[2] = molecular target: T3, AT-rich interacting domain 3A (ARID3A) (human (endogenous in Huh7)) (UniProt Q99856); assay: co-IP; endogenous proteins in Huh7 cells; capture with anti-ARID3A antibody and, in reverse, with anti-CEP131 antibody
T3 sequence: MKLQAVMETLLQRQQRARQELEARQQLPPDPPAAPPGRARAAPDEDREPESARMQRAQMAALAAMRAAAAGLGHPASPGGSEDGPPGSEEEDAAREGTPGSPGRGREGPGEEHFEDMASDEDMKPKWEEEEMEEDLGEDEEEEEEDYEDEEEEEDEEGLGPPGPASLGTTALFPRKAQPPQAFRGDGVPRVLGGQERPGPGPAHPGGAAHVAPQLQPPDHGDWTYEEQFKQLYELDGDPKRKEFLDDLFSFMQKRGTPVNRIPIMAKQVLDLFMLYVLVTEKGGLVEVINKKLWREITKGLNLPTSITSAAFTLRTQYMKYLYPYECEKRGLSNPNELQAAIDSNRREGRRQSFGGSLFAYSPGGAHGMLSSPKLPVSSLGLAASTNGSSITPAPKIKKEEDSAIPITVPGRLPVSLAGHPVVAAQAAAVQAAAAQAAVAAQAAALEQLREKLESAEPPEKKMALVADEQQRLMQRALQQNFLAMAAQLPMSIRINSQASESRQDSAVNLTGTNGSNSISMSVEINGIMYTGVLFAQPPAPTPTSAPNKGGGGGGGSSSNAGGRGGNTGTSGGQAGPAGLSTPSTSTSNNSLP

binding [1]: binds
B1: AT-rich interacting domain 3A (ARID3A) (protein, UniProt Q99856 1-593)
chain: MKLQAVMETLLQRQQRARQELEARQQLPPDPPAAPPGRARAAPDEDREPESARMQRAQMAALAAMRAAAAGLGHPASPGGSEDGPPGSEEEDAAREGTPGSPGRGREGPGEEHFEDMASDEDMKPKWEEEEMEEDLGEDEEEEEEDYEDEEEEEDEEGLGPPGPASLGTTALFPRKAQPPQAFRGDGVPRVLGGQERPGPGPAHPGGAAHVAPQLQPPDHGDWTYEEQFKQLYELDGDPKRKEFLDDLFSFMQKRGTPVNRIPIMAKQVLDLFMLYVLVTEKGGLVEVINKKLWREITKGLNLPTSITSAAFTLRTQYMKYLYPYECEKRGLSNPNELQAAIDSNRREGRRQSFGGSLFAYSPGGAHGMLSSPKLPVSSLGLAASTNGSSITPAPKIKKEEDSAIPITVPGRLPVSLAGHPVVAAQAAAVQAAAAQAAVAAQAAALEQLREKLESAEPPEKKMALVADEQQRLMQRALQQNFLAMAAQLPMSIRINSQASESRQDSAVNLTGTNGSNSISMSVEINGIMYTGVLFAQPPAPTPTSAPNKGGGGGGGSSSNAGGRGGNTGTSGGQAGPAGLSTPSTSTSNNSLP

binding (Flag-tagged ARID3A): binds
B2: HA-tagged CEP131 (protein, UniProt Q9UPN4 1-1083)
chain: MKGTRAIGSVPERSPAGVDLSLTGLPPPVSRRPGSAATTKPIVRSVSVVTGSEQKRKVLEATGPGGSQAINNLRRSNSTTQVSQPRSGSPRPTEPTDFLMLFEGSPSGKKRPASLSTAPSEKGATWNVLDDQPRGFTLPSNARSSSALDSPAGPRRKECTVALAPNFTANNRSNKGAVGNCVTTMVHNRYTPSERAPPLKSSNQTAPSLNNIIKAATCEGSESSGFGKLPKNVSSATHSARNNTGGSTGLPRRKEVTEEEAERFIHQVNQATVTIQRWYRHQVQRRGAGAARLEHLLQAKREEQRQRSGEGTLLDLHQQKEAARRKAREEKARQARRAAIQELQQKRALRAQKASTAERGPPENPRETRVPGMRQPAQELSPTPGGTAHQALKANNTGGGLPAAGPGDRCLPTSDSSPEPQQPPEDRTQDVLAQDAAGDNLEMMAPSRGSAKSRGPLEELLHTLQLLEKEPDVLPRPRTHHRGRYAWASEVTTEDDASSLTADNLEKFGKLSAFPEPPEDGTLLSEAKLQSIMSFLDEMEKSGQDQLDSQQEGWVPEAGPGPLELGSEVSTSVMRLKLEVEEKKQAMLLLQRALAQQRDLTARRVKETEKALSRQLQRQREHYEATIQRHLAFIDQLIEDKKVLSEKCEAVVAELKQEDQRCTERVAQAQAQHELEIKKLKELMSATEKARREKWISEKTKKIKEVTVRGLEPEIQKLIARHKQEVRRLKSLHEAELLQSDERASQRCLRQAEELREQLEREKEALGQQERERARQRFQQHLEQEQWALQQQRQRLYSEVAEERERLGQQAARQRAELEELRQQLEESSSALTRALRAEFEKGREEQERRHQMELNTLKQQLELERQAWEAGRTRKEEAWLLNREQELREEIRKGRDKEIELVIHRLEADMALAKEESEKAAESRIKRLRDKYEAELSELEQSERKLQERCSELKGQLGEAEGENLRLQGLVRQKERALEDAQAVNEQLSSERSNLAQVIRQEFEDRLAASEEETRQAKAELATLQARQQLELEEVHRRVKTALARKEEAVSSLRTQHEAAVKRADHLEELLEQHRRPTPSTK

binding [2]: binds
B3: centrosomal protein 131 kDa (CEP131) (protein, UniProt Q9UPN4 1-1083)
chain: MKGTRAIGSVPERSPAGVDLSLTGLPPPVSRRPGSAATTKPIVRSVSVVTGSEQKRKVLEATGPGGSQAINNLRRSNSTTQVSQPRSGSPRPTEPTDFLMLFEGSPSGKKRPASLSTAPSEKGATWNVLDDQPRGFTLPSNARSSSALDSPAGPRRKECTVALAPNFTANNRSNKGAVGNCVTTMVHNRYTPSERAPPLKSSNQTAPSLNNIIKAATCEGSESSGFGKLPKNVSSATHSARNNTGGSTGLPRRKEVTEEEAERFIHQVNQATVTIQRWYRHQVQRRGAGAARLEHLLQAKREEQRQRSGEGTLLDLHQQKEAARRKAREEKARQARRAAIQELQQKRALRAQKASTAERGPPENPRETRVPGMRQPAQELSPTPGGTAHQALKANNTGGGLPAAGPGDRCLPTSDSSPEPQQPPEDRTQDVLAQDAAGDNLEMMAPSRGSAKSRGPLEELLHTLQLLEKEPDVLPRPRTHHRGRYAWASEVTTEDDASSLTADNLEKFGKLSAFPEPPEDGTLLSEAKLQSIMSFLDEMEKSGQDQLDSQQEGWVPEAGPGPLELGSEVSTSVMRLKLEVEEKKQAMLLLQRALAQQRDLTARRVKETEKALSRQLQRQREHYEATIQRHLAFIDQLIEDKKVLSEKCEAVVAELKQEDQRCTERVAQAQAQHELEIKKLKELMSATEKARREKWISEKTKKIKEVTVRGLEPEIQKLIARHKQEVRRLKSLHEAELLQSDERASQRCLRQAEELREQLEREKEALGQQERERARQRFQQHLEQEQWALQQQRQRLYSEVAEERERLGQQAARQRAELEELRQQLEESSSALTRALRAEFEKGREEQERRHQMELNTLKQQLELERQAWEAGRTRKEEAWLLNREQELREEIRKGRDKEIELVIHRLEADMALAKEESEKAAESRIKRLRDKYEAELSELEQSERKLQERCSELKGQLGEAEGENLRLQGLVRQKERALEDAQAVNEQLSSERSNLAQVIRQEFEDRLAASEEETRQAKAELATLQARQQLELEEVHRRVKTALARKEEAVSSLRTQHEAAVKRADHLEELLEQHRRPTPSTK
